In article PMC9392749:
These are yes or no findings as the source states them, for the method shown. In cells and extracts the contact can be indirect. Some binding calls cover weakened binding; strength is not graded here.

Protein sequences, listed by entry. Tags and fused reporters are not part of them.
UniProt Q06416: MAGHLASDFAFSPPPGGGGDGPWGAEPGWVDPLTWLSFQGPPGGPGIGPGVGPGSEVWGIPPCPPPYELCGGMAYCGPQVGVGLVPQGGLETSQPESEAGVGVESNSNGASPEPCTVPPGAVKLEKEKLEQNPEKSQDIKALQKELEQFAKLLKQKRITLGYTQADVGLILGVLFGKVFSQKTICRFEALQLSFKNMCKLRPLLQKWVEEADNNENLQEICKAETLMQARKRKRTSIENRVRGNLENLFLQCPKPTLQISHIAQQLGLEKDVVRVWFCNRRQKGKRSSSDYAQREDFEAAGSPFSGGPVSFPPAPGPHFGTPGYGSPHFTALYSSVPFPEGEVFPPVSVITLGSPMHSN

Molecular target: receptor tyrosine kinase (RTK) ERBB2 (human (endogenous in SW480, HT29 and LS1034)) (UniProt P04626)
Test: co-IP; lysates of SW480, HT29 and LS1034 cells expressing POU5F1B-HA or GFP; endogenous ERBB2 precipitated with anti-ERBB2 antibody on streptavidin agarose beads overnight at 4 °C; washes with BC100 and BC500 (500 mM KCl); blot with anti-ERBB2 and anti-HA

For “HA-tagged POU5F1B (from UniProt Q06416 1-359)”, the binding was “binds”.
